Test results from PMC10608451, “Affinity Purification and Molecular Characterization of Angiotensin-Converting Enzyme (ACE)-Inhibitory Peptides from Takifugu flavidus” (Marine Drugs, 2023).

T1: angiotensin-I-converting enzyme (UniProt P12822 34-1260)
T1 sequence (looked up): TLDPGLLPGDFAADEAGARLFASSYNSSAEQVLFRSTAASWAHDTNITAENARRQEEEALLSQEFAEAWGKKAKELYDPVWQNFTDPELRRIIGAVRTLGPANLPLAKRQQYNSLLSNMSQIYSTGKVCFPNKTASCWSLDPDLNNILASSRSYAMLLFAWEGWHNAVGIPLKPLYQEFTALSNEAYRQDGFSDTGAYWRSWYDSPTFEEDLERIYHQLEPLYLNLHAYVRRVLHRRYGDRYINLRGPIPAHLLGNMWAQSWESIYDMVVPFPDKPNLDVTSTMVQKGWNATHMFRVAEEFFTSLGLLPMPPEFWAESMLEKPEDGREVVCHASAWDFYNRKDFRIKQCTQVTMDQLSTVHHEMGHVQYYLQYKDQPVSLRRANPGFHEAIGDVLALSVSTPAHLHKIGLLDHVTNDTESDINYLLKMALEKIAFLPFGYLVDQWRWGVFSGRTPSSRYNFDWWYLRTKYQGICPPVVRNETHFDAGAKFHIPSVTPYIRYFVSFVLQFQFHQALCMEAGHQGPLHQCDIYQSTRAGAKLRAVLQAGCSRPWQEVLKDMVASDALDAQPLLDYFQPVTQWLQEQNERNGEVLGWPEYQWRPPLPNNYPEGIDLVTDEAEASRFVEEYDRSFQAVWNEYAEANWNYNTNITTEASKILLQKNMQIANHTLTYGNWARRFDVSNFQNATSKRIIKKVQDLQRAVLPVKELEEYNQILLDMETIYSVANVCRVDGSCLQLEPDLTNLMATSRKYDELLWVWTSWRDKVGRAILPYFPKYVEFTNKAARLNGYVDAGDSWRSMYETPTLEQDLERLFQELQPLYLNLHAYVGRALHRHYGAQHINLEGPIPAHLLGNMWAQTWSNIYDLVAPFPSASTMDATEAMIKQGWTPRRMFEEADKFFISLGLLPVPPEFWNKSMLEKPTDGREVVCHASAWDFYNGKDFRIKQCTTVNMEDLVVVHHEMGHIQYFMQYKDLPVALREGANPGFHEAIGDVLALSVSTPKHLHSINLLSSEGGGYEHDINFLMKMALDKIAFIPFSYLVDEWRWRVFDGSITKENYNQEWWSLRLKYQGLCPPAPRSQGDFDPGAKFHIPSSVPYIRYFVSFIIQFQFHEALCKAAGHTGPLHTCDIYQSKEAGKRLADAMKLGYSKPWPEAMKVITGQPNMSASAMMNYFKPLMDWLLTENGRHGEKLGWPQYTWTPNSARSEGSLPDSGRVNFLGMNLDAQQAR

B1: DVFRVT (peptide)
peptide: DVFRVT
B2: … (peptide)
peptide: KDVDVLDSVL
B3: ELLVQN (peptide)
peptide: ELLVQN
B4: LLGGGA (peptide)
peptide: LLGGGA
B5: … (peptide)
peptide: NESNPDYLVR
B6: … (peptide)
peptide: SGVGDGDLPELT
B7: FLPELT (peptide)
peptide: FLPELT
B8: TYPFPV (peptide)
peptide: TYPFPV
B9: … (peptide)
peptide: NNLFDQSGTVK
B10: HPPLQ (peptide)
peptide: HPPLQ
B11: … (peptide)
peptide: SATVPDPLPVVN
B12: ELALQ (peptide)
peptide: ELALQ
B13: TSTPTKVL (peptide)
peptide: TSTPTKVL
B14: FAVET (peptide)
peptide: FAVET
B15: TLRFALHGME (peptide)
peptide: TLRFALHGME
notes: source: Takifugu flavidus skin hydrolysate (alcalase, <1 kDa fraction); also synthetic peptide (Fmoc solid phase, Genscript)
B16: … (peptide)
peptide: TCDKVQEVR
B17: TLFGL (peptide)
peptide: TLFGL
B18: RSTGALAL (peptide)
peptide: RSTGALAL
B19: TFTGA (peptide)
peptide: TFTGA

biological target: T1, angiotensin-I-converting enzyme; assay: affinity purification with mass spectrometry; ACE covalently immobilised on CNBr-activated Sepharose 4B; T. flavidus hydrolysate (<1 kDa) loaded in 50 mmol/L Tris-HCl pH 7.4, washed, eluted with 1 mol/L NaCl; eluate sequenced de novo by LC-MS/MS (ALC >= 80%); only the target purified

binding | Binder
binds | B1
binds | B2
binds | B3
binds | B4
binds | B5
binds | B6
binds | B7
binds | B8
binds | B9
binds | B10
binds | B11
binds | B12
binds | B13
binds | B14
binds | B16

Binder | binding
B15 | binds
B17 | binds
B18 | binds
B19 | binds

These are yes or no findings as the source states them, for the method shown. In cells and extracts the contact can be indirect. These calls come from enrichment with a bait or labelling near it, and not all partners need be listed.
